The source of these data is the supplement of paper PMC9578143, “Small-Molecule Ebselen Binds to YTHDF Proteins Interfering with the Recognition of N^6-Methyladenosine-Modified RNAs” (ACS Pharmacology & Translational Science, 2022).

Some of the results follow. Part of the spread comes from offsets between plates or batches.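 Hits were defined as a z-score below −3.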

The assay addresses T1, YTHDF1 YTH domain (aa 365-554) (UniProt Q9BYJ9).
T1 sequence (whole entry): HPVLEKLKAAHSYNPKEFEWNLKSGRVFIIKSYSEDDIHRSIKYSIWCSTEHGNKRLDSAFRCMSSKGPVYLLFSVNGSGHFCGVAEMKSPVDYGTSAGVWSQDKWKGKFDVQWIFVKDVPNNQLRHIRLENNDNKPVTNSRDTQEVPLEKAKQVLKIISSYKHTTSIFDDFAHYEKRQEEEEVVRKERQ
Nature of the assay: tryptophan fluorescence intensity z-score (mean); higher = higher fluorescence, less quenching (negative = binding / quenching). Particulars: 10 µM.
As to `COc1ccc(-c2cc(=O)c3c(OC)c(OC)c(OC)c(OC)c3o2)cc1` (plate: M 19-20), the “tryptophan fluorescence intensity z-score” value was inactive: 0.25. For `CC12CC3CC(C)(C1)CC(N)(C3)C2` (plate: M 7-8) the value was inactive: 0.456; for `CC(C)=CCc1c(O)cc2oc(C)cc(=O)c2c1O` (plate: M 13-14), inactive: 0.741.

With `O=C(Nc1ccc([N+](=O)[O-])cc1Cl)c1cc(Cl)ccc1O` (plate: M 9-10), the “tryptophan fluorescence intensity z-score” value is inactive: -0.348.

In the case of `CCOc1ccc(Cc2nccc3cc(OCC)c(OCC)cc23)cc1OCC` (plate: M 23-24), the “tryptophan fluorescence intensity z-score” value is inactive: -0.133.

As to `Nc1ccc(S(=O)(=O)O)cc1.Nc1ccc(S(=O)(=O)O)cc1.[Zn]` (plate: M 9-10), the “tryptophan fluorescence intensity z-score” value is inactive: 0.344. Turning to `C#C[C@]1(O)CC[C@H]2[C@@H]3CCC4=Cc5oncc5C[C@]4(C)[C@H]3CC[C@@]21C` (plate: M 1-2), the “tryptophan fluorescence intensity z-score” value is inactive: -0.329. In the case of `Cc1cccc(N(C)C(=S)Oc2ccc3ccccc3c2)c1` (plate: M 5-6), the “tryptophan fluorescence intensity z-score” value was inactive: -0.0714.

Regarding `O=C(O)c1cccnc1` (plate: M 3-4), the “tryptophan fluorescence intensity z-score” value is inactive: -0.254. As for `CCCCc1oc2ccccc2c1C(=O)c1cc(I)c(OCCN(CC)CC)c(I)c1` (plate: M 11-12), the “tryptophan fluorescence intensity z-score” value is inactive: -0.144. As for `CCN1CCCC1CNC(=O)c1cc(S(N)(=O)=O)ccc1OC` (configuration not stated) (plate: M 7-8), the figure is inactive: -0.241; as for `NNC(=O)c1ccncc1` (plate: M 3-4), inactive: -0.0403. For `CCC(=O)OCC(=O)[C@@]1(OC(=O)CC)[C@@H](C)C[C@H]2[C@@H]3CCC4=CC(=O)C=C[C@]4(C)[C@@]3(F)[C@@H](O)C[C@@]21C` (plate: M 7-8) the value was inactive: 0.142. For `CC1(C)O[C@@H]2C[C@H]3[C@@H]4C[C@H](F)C5=CC(=O)CC[C@]5(C)[C@H]4[C@@H](O)C[C@]3(C)[C@]2(C(=O)CO)O1` (plate: M 13-14) the value was inactive: 0.77. Take `CC1=CCc2c(cc3oc(C)cc(=O)c3c2O)OC1` (plate: M 13-14): the “tryptophan fluorescence intensity z-score” value was inactive: 0.143. As for `CC1(C)CC2C1CCC1(C)OC1CCC2(C)O` (configuration not stated) (plate: M 21-22), the figure is inactive: 0.432; as for `C[N+](C)(C)CCOC(N)=O` (plate: M 1-2), inactive: 0.0815. Take `COC(=O)C[C@H]1C2(C)CC34OC5(C)O[C@@]6([C@H](OC)C(OC(=O)C(C)C)[C@]7(C)C(/C(=C(/OC)C(C)C)C(=O)O[C@H]7c7ccoc7)[C@@]6(O5)[C@H](OC)[C@@]3(OC)C2OC(C)=O)[C@]14C` (some centres not stated) (plate: M 15-16): the “tryptophan fluorescence intensity z-score” value is inactive: -0.148. For `CC(C)(C)NC[C@H](O)COc1cccc2c1CCCC2=O` (plate: M 11-12) the value was inactive: -0.109; for `COC(=O)[C@H]1[C@H]2C[C@H]3c4[nH]c5cc(OC)ccc5c4CCN3C[C@H]2C[C@@H](OC(=O)c2cc(OC)c(OC)c(OC)c2)[C@@H]1OC` (plate: M 23-24), inactive: 0.382; for `COc1cc(O)cc(OC)c1OC` (plate: M 15-16), inactive: 0.301. For `O=C(NC(Cc1cc(=O)[nH]c2ccccc12)C(=O)O)c1ccc(Cl)cc1` (configuration not stated) (plate: M 23-24) the value was inactive: 0.337; for `O=C1c2c(O)ccc(O)c2C(=O)c2c(NCCNCCO)ccc(NCCNCCO)c21` (plate: M 9-10), inactive: -0.133; for `CO[C@H]1C[C@H](O[C@@H]2/C(C)=C/C[C@@H]3C[C@@H](C[C@]4(CC[C@H](C)[C@@H](C5CCCCC5)O4)O3)OC(=O)[C@@H]3C=C(C)/C(=N/O)[C@H]4OC/C(=C\C=C\[C@@H]2C)[C@]43O)O[C@@H](C)[C@@H]1O` (plate: M 9-10), inactive: 0.225. As for `Cc1nc2sccn2c(=O)c1CCN1CCC(=C(c2ccc(F)cc2)c2ccc(F)cc2)CC1` (plate: M 13-14), the figure is inactive: 0.418; as for `C[C@H](CCC(=O)O)[C@H]1CC[C@H]2[C@@H]3C(=O)C[C@@H]4CC(=O)CC[C@]4(C)[C@H]3CC(=O)[C@]12C` (plate: M 7-8), inactive: 0.396. With `C[C@H](CCC(=O)O)[C@H]1CC[C@H]2[C@@H]3C(=O)C[C@@H]4CC(=O)CC[C@]4(C)[C@H]3CC(=O)[C@]12C` (plate: M 1-2), the “tryptophan fluorescence intensity z-score” value is inactive: 0.683.

Turning to `CN1CCN2c3ccccc3Cc3ccccc3C2C1` (configuration not stated) (plate: M 13-14), the “tryptophan fluorescence intensity z-score” value was inactive: 0.793. As to `N[C@@H](Cc1ccc(O)c(O)c1)C(=O)O` (plate: M 13-14), the “tryptophan fluorescence intensity z-score” value is inactive: 0.49. In the case of `CCC(C)C(NC)C(=O)O` (configuration not stated) (plate: M 17-18), the “tryptophan fluorescence intensity z-score” value is inactive: 0.378. In the case of `O=C(O)CCC(=O)c1ccc(-c2ccccc2)cc1` (plate: M 7-8), the “tryptophan fluorescence intensity z-score” value was inactive: 0.103. As for `C[C@H]1[C@H](C)CC[C@]2(C(=O)O)CC[C@]3(C)C(=CC[C@@H]4[C@@]5(C)C[C@@H](O)[C@H](O)[C@@](C)(CO)[C@@H]5[C@H](O)C[C@]43C)[C@H]12` (plate: M 19-20), the figure is inactive: 0.822.
